# Data as given in PubChem BioAssay AID445 (National Center for Advancing Translational Sciences (NCATS), 2006).
# Some of the results follow. Shown are side measurements of this screen, not its main read-out; they come without a call. Compounds called inactive in the main read-out are mostly missing here. The note in brackets gives the kind of curve behind each potency; many fits are weak.
# Test: IkB Signaling
# Settings: ABC-DLBCL IkBa-CBG/CBR dual luciferase ratio (green luciferase fused to IkBa over red control in OCI-Ly3 lymphoma cells), 4 h
# Summary of the method: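 Curves were fitted separately to fusion (green), unfused (red) and ratio luminescence, then classed by r2, magnitude and activity. Cells: OCI-Ly3, 4 h compound plus doxycycline at 37C; 10 uM MG-132 defined full response.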
# [1] = measured here: control luc red channel unless noted
# [2] = measured here: IkB-luc green channel
# [3] = measured here: control luc red channel
structure (smiles),measurement,setting,value
COc1ccc(CNC(=O)CCn2cccn2)cc1,AC50,[1],"2 µM [falling, partial curve]"
COc1ccc(CCn2cc3c(c2-c2ccc(Br)cc2)c(=O)n(C)c(=O)n3C)cc1OC,AC50,[1],"3.16 µM [rising, partial curve]"
COc1ccc(-c2nc(C)c(CCNC(=O)C(=O)Nc3ccccc3OC)s2)cc1,AC50,[1],"20 µM [falling, single point]"
CCc1ccc(C(=O)c2cn(CC(=O)Nc3ccc4c(c3)OCO4)c3cc(OC)c(OC)cc3c2=O)cc1,AC50,[1],"39.8 µM [falling, single point]"
Cc1ccc(-c2nnc(SCc3ccccc3C)o2)cc1,AC50,[1],"2 µM [rising, partial curve]"
CCc1ccccc1NC(=O)c1c(NC(=O)c2ccccc2)sc2c1CCCC2,AC50,[1],"10 µM [falling, partial curve]"
Cc1ccc(C)c(N2CCN(C(=O)C3CCCN(S(=O)(=O)c4ccc5c(c4)oc(=O)n5C)C3)CC2)c1 (configuration not stated),AC50,[1],"25.1 µM [falling, partial curve]"
COc1ccc2c(c1)Cc1sc(NC(=O)c3cccs3)nc1-2,AC50,[1],"6.31 µM [falling, partial curve]"
Cc1cccc(-c2nc(CSCC(=O)N3CCN(Cc4ccc5c(c4)OCO5)CC3)c(C)o2)c1,AC50,[1],"15.8 µM [falling, partial curve]"
COc1cc(-c2cc(OC)c3c(C)oc(C)c3c(=O)c2)ccc1OC(=O)c1ccccc1Cl,AC50,[1],"3.16 µM [falling, partial curve, poor fit]"
Cc1cc(C)c2c(=O)cc(CSCC(=O)Nc3ccccc3Cl)[nH]c2c1,AC50,[1],"25.1 µM [falling, partial curve]"
O=C(CCCN1C(=O)CSc2ncccc21)N1CCN(c2cccc(C(F)(F)F)c2)CC1,AC50,[1],"31.6 µM [falling, partial curve]"
Cc1cccc(Oc2nc3c(C)cccn3c(=O)c2/C=C(\C#N)c2nc3ccccc3[nH]2)c1,AC50,[1],"1.26 µM [rising, partial curve]"
Cc1cc(S(=O)(=O)C(CNC(=O)COc2ccc(Cl)cc2)c2cccs2)ccc1F (configuration not stated),AC50,[1],"25.1 µM [falling, single point]"
Cc1ccc(CCNC(=O)C2CCN(Cc3nc(-c4ccccc4C)oc3C)CC2)cc1,AC50,[1],"12.6 µM [falling, partial curve]"
c1ccc(Cc2nnc(-c3ccccc3)o2)cc1,AC50,[2],"25.1 µM [rising, partial curve]"
same,AC50,[3],"20 µM [falling, single point]"
Clc1cccc(C=NC=Nc2cccc(Cl)c2)c1,AC50,[1],"0.794 µM [rising, partial curve, poor fit]"
Cc1ccc(N(Cc2cc(=O)[nH]c3ccccc23)C(=O)c2ccco2)cc1,AC50,[1],"1.58 µM [falling, full curve]"
COc1cccc(NC(=O)C(Cc2ccccc2)NS(=O)(=O)c2ccc3c(c2)oc(=O)n3C)c1 (configuration not stated),AC50,[1],"3.16 µM [falling, partial curve]"
Cc1coc2cc3oc(=O)c(CC(=O)NCCc4ccccc4)c(C)c3cc12,AC50,[1],"39.8 µM [falling, single point]"
CCOc1ccc(NC(=O)Cn2cc(C(=O)c3ccco3)c3ccccc32)cc1,AC50,[1],"39.8 µM [falling, partial curve, poor fit]"
CCn1c(=O)cc(OCC(=O)Nc2cc(Cl)c(OC)cc2OC)c2ccccc21,AC50,[1],"0.126 µM [falling, full curve]"
CCOc1ccc(CCNC(=O)c2cc3c(-c4ccc(OC)c(OC)c4)nn(C)c3s2)cc1OCC,AC50,[1],"10 µM [falling, partial curve]"
COc1ccc(-c2[nH]nc3c2C(c2ccncc2)C(C#N)=C(N)O3)cc1 (configuration not stated),AC50,[1],"15.8 µM [falling, partial curve]"
CCc1ccccc1NC(=O)CSc1nnc2ccc3ccccc3n12,AC50,[1],"2 µM [falling, partial curve]"
Cc1cccc(N2CCN(S(=O)(=O)c3cc(C(=O)Nc4ccccc4Cl)ccc3F)CC2)c1C,AC50,[1],"12.6 µM [falling, partial curve]"
COC(=O)c1cc2oc3ccccc3c2n1Cc1nc(-c2ccccc2C)oc1C,AC50,[1],"0.2 µM [rising, full curve, poor fit]"
Cc1ccc(NC(=O)[C@@H](c2ccccc2)N2Cc3ccccc3C2=O)cc1,AC50,[1],"25.1 µM [falling, single point]"
CC(C)(C)OC(=O)N1CCC(c2c(C(=O)NCCN3CCC(Cc4ccccc4)CC3)cnn2-c2ccc(F)cc2)CC1,AC50,[1],"20 µM [falling, partial curve]"
Brc1ccc(-n2nc(-c3ccccc3)c3cnc4cc5c(cc4c32)OCO5)cc1,AC50,[2],"10 µM [rising, partial curve]"
same,AC50,[3],"12.6 µM [rising, partial curve]"

# A portion taken from the entries so far, for reference:
structure (smiles),measurement,setting,value
COC(=O)c1cc2oc3ccccc3c2n1Cc1nc(-c2ccccc2C)oc1C,AC50,[1],"0.2 µM [rising, full curve, poor fit]"
Cc1ccc(NC(=O)[C@@H](c2ccccc2)N2Cc3ccccc3C2=O)cc1,AC50,[1],"25.1 µM [falling, single point]"
